Patent US7560259B2, “Glutathione S-transferase sequence variants” (Mayo Foundation for Medical Education and Research, priority 2005, dated 2009)

B1: Val41Ile: GSTO2 allozyme having an isoleucine at amino acid residue 41 in place of valine (protein)
chain: MSGDATRTLGKGSQPPGPVPEGLIRIYSMRFCPYSHRTRLILKAKDIRHEVVNINLRNKPEWYYTKHPFGHIPVLETSQCQLIYESVIACEYLDDAYPGRKLFPYDPYERARQKMLLELFCKVPHLTKECLVALRCGRECTNLKAALRQEFSNLEEILEYQNTTFFGGTCISMIDYLLWPWFERLDVYGILDCVSHTPALRLWISAMKWDPTVCALLMDKSIFQGFLNLYFQNNPNAFDFGLC
B2: Asn142Asp: GSTO2 allozyme having an aspartic acid at amino acid residue 142 in place of an asparagine residue (protein)
chain: B1 chain with I41V, N142D
B3: Cys130Tyr: GSTO2 allozyme having a tyrosine at amino acid residue 130 in place of a cysteine residue (protein)
chain: B1 chain with I41V, C130Y
B4: Leu158Ile: GSTO2 allozyme having an isoleucine at amino acid 158 in place of a leucine residue (protein)
chain: B1 chain with I41V, L158I
B5: Asn142Asp/Leu158Ile: double variant GSTO2 allozyme, Asn142Asp and Leu158Ile (protein)
chain: B1 chain with I41V, N142D, L158I
B6: WT: reference (wild type) human GSTO2 polypeptide, SEQ ID NO:9 (protein)
chain: B1 chain with I41V
modifications: Homo sapien

Test system: COS-1 cells
Experiment: Quantitative Western blot of GSTO2 immunoreactive protein after transient expression in COS-1 cells
Type: cell-based
Settings: for GSTO2 immunoreactive protein levels: COS-1 cells transiently transfected, corrected for beta-galactosidase, WT = 100; for expression level relative to the level of the WT allozyme / allozyme level after transient expression (in words): transient expression in COS-1 cells
Text: Recombinant GSTO2 Expression Constructs and Allozyme Expression: A WT GSTO2 cDNA open reading frame (ORF) sequence was amplified from a pooled human liver cDNA library (Clontech, Mountain View, Calif.). Expression constructs for the nonsynonymous cSNPs observed during the resequencing studies were generated by site-directed mutagenesis using “circular PCR.” Sequences of the site-directed mutagenesis primers are listed in Table 1. Site-directed mutagenesis amplification reactions contained 1 U of Pfu Turbo DNA polymerase (Stratagene, La Jolla, Calif.) in a final volume of 25 μl, 10 μmol of primers, 0.24 mM dNTPs, and 2.5 μl of 10×PCR buffer. The sequences of expression constructs were confirmed by sequencing in both directions after cloning into the eukaryotic expression vector pCR3.1 (Invitrogen, Carlsbad, Calif.).
WT and variant GSTO2 expression constructs were transfected into COS-1 cells, together with pSV-β-galactosidase DNA (Promega) to make it possible to use β-galactosidase activity to correct for transfection efficiency. Transfections were performed with Lipofectamine 2000 (Invitrogen), and the cells were cultured for 48 hours in Dulbecco's modified Eagles medium (DMEM; Bio Whittaker, Walkersville, Md.) with 10% fetal bovine serum (Clontech). Cells were homogenized with a Polytron homogenizer (Brinkmann Instruments, Westbury, N.Y.). The homogenates were centrifuged at 100,000×g for 1 hour; and supernatant preparations were stored at −80° C.
Western Blot Analysis: Rabbit polyclonal antibodies were generated to GSTO2 (Cocalico Biologicals, Reamstown, Pa.) using a polypeptide that corresponded to amino acids 10 to 30, with an additional cysteine residue at the amino terminus. This synthetic polypeptide was conjugated to keyhole limpet hemocyanin prior to immunization of rabbits. For quantitative Western blot analysis, cytosol preparations of COS-1 cells transfected with the expression constructs were loaded on a 12% polyacrylamide gel on the basis of β-galactosidase activity to correct for possible variation in transfection efficiency. After SDS-PAGE, the proteins were transferred to a nitrocellulose membrane that was probed with rabbit antiserum to GSTO2, diluted 1:2000 with “blocking buffer.” Goat anti-rabbit horseradish peroxidase, diluted 1:20,000, was used as the secondary antibody. Bound antibody was detected with the ECL Western blotting system (Amersham Pharmacia Biotech, Piscataway, N.J.). The level of immunoreactive protein was quantitated using IP Gel Lab (Biosystemetica, Plymouth, UK).
As an initial step in the study of the possible functional implications of nonsynonymous cSNPs in the GSTO2 gene, expression constructs were created for all variant allozymes, and those constructs were used to transfect COS-1 cells. This mammalian cell line was transfected to ensure the presence of mammalian post-translational modification and the mammalian machinery for protein degradation. The GSTO2 expression constructs were cotransfected with β-galactosidase to make it possible to correct for variations in transfection efficiency. […] The Val41Ile and Asn142Asp allozymes were expressed at approximately 80% of the level of the WT allozyme (Table 10). The GSTO2 antibody cross-reacted with a protein in the COS-1 cells with a molecular mass slightly higher than that for recombinant GSTO2.

Molecule | GSTO2 immunoreactive protein levels | expression level relative to the level of the WT allozyme | allozyme level after transient expression (in words)
B1 | 82.8 ± 1.6 | approximately 80% | 
B2 | 76.1 ± 3.0 | approximately 80% | 
B3 | 49.4 ± 2.8 |  | strikingly reduced
B4 | 17.3 ± 1.7 |  | strikingly reduced
B5 | 15.2 ± 2.5 |  | strikingly reduced
B6 | 100 ± 2.3 |  | 

Positions count from the first letter of the chain named.
